Reference: PMC11518989

Amino acid sequences for entries named in this document (tags omitted). A change or cut given only in a name is not applied to a line headed by its entry.
UniProt Q9H8M2: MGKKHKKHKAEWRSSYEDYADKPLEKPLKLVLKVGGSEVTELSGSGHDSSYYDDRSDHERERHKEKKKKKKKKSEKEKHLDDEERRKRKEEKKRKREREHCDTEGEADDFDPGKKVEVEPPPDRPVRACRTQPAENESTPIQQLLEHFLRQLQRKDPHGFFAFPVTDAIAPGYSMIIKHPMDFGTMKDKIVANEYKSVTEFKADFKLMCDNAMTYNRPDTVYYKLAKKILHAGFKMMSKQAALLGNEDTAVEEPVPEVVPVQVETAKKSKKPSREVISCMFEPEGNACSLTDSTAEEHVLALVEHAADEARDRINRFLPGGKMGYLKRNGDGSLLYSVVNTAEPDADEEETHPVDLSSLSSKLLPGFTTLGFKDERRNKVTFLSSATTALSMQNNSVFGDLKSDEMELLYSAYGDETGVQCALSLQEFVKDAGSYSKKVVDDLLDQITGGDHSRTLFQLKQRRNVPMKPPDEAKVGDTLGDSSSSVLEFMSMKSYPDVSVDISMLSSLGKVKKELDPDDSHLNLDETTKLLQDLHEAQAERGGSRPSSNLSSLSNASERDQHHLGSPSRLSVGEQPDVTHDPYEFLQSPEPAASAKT
UniProt Q92922: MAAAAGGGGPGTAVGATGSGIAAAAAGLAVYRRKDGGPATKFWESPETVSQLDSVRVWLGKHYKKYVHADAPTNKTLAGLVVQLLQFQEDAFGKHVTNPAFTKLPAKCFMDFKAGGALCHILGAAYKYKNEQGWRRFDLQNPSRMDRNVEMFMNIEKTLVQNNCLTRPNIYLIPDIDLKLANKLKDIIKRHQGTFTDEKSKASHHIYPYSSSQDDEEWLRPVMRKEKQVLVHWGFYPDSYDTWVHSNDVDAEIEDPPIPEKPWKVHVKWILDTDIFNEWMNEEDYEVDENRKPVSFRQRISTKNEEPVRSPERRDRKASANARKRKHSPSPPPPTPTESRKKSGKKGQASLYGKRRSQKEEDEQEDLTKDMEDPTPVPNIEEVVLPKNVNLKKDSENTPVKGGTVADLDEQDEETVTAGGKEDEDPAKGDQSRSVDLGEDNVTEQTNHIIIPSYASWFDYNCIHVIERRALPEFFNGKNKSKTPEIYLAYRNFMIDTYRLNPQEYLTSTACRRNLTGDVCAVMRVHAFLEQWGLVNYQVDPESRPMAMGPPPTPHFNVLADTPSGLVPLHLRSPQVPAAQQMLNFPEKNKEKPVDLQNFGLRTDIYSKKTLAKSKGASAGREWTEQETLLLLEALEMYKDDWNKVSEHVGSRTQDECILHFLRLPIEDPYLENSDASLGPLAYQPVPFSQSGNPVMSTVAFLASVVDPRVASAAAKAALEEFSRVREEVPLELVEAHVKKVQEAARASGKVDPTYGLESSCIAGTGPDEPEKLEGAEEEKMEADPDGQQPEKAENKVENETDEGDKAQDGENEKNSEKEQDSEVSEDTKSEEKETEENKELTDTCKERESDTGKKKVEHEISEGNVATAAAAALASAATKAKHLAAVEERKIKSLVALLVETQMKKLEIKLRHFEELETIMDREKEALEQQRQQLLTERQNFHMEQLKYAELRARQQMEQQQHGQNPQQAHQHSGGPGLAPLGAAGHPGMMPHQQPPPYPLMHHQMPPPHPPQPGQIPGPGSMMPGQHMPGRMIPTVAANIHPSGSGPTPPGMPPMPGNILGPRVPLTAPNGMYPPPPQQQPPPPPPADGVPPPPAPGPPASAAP
UniProt Q9NZM4: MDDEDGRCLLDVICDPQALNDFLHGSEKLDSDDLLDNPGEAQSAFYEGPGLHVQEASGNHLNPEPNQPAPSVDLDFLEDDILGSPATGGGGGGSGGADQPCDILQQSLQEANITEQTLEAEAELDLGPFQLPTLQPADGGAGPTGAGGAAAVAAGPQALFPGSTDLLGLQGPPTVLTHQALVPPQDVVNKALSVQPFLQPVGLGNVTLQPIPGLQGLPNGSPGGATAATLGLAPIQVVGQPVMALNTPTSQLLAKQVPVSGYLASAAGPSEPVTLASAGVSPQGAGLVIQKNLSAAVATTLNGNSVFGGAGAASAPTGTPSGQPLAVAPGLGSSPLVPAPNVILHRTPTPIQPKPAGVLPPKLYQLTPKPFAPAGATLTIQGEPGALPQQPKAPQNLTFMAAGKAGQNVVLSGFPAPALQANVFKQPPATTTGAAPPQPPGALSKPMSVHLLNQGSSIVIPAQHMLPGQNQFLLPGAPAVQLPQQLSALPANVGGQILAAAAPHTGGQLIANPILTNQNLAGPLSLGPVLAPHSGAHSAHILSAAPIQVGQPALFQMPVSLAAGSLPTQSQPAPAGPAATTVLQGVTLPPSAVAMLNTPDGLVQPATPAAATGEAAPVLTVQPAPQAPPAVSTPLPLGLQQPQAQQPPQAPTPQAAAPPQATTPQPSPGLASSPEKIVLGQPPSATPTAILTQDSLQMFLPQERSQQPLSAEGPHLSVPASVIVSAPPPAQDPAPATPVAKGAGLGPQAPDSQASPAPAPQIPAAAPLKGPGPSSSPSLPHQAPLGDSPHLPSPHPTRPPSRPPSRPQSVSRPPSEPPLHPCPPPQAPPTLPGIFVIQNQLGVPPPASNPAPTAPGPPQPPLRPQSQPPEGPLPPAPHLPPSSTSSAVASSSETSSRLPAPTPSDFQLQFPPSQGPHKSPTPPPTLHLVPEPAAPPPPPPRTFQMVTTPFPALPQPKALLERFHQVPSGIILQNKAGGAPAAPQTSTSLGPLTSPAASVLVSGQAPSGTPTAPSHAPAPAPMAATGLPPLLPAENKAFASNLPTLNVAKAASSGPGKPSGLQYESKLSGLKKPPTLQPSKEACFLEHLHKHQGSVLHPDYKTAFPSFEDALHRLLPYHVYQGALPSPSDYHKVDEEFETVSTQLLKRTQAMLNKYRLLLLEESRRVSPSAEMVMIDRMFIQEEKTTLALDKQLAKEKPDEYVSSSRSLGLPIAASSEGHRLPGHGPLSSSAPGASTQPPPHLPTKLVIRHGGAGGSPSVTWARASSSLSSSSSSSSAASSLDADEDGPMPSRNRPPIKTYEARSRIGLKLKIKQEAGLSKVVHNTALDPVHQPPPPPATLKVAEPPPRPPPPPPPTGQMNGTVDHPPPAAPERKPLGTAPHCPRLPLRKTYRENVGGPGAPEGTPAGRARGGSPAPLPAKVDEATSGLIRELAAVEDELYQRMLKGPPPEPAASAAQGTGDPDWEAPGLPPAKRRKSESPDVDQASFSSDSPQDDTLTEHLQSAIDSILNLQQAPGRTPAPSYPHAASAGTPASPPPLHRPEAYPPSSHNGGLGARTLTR
UniProt Q3L8U1: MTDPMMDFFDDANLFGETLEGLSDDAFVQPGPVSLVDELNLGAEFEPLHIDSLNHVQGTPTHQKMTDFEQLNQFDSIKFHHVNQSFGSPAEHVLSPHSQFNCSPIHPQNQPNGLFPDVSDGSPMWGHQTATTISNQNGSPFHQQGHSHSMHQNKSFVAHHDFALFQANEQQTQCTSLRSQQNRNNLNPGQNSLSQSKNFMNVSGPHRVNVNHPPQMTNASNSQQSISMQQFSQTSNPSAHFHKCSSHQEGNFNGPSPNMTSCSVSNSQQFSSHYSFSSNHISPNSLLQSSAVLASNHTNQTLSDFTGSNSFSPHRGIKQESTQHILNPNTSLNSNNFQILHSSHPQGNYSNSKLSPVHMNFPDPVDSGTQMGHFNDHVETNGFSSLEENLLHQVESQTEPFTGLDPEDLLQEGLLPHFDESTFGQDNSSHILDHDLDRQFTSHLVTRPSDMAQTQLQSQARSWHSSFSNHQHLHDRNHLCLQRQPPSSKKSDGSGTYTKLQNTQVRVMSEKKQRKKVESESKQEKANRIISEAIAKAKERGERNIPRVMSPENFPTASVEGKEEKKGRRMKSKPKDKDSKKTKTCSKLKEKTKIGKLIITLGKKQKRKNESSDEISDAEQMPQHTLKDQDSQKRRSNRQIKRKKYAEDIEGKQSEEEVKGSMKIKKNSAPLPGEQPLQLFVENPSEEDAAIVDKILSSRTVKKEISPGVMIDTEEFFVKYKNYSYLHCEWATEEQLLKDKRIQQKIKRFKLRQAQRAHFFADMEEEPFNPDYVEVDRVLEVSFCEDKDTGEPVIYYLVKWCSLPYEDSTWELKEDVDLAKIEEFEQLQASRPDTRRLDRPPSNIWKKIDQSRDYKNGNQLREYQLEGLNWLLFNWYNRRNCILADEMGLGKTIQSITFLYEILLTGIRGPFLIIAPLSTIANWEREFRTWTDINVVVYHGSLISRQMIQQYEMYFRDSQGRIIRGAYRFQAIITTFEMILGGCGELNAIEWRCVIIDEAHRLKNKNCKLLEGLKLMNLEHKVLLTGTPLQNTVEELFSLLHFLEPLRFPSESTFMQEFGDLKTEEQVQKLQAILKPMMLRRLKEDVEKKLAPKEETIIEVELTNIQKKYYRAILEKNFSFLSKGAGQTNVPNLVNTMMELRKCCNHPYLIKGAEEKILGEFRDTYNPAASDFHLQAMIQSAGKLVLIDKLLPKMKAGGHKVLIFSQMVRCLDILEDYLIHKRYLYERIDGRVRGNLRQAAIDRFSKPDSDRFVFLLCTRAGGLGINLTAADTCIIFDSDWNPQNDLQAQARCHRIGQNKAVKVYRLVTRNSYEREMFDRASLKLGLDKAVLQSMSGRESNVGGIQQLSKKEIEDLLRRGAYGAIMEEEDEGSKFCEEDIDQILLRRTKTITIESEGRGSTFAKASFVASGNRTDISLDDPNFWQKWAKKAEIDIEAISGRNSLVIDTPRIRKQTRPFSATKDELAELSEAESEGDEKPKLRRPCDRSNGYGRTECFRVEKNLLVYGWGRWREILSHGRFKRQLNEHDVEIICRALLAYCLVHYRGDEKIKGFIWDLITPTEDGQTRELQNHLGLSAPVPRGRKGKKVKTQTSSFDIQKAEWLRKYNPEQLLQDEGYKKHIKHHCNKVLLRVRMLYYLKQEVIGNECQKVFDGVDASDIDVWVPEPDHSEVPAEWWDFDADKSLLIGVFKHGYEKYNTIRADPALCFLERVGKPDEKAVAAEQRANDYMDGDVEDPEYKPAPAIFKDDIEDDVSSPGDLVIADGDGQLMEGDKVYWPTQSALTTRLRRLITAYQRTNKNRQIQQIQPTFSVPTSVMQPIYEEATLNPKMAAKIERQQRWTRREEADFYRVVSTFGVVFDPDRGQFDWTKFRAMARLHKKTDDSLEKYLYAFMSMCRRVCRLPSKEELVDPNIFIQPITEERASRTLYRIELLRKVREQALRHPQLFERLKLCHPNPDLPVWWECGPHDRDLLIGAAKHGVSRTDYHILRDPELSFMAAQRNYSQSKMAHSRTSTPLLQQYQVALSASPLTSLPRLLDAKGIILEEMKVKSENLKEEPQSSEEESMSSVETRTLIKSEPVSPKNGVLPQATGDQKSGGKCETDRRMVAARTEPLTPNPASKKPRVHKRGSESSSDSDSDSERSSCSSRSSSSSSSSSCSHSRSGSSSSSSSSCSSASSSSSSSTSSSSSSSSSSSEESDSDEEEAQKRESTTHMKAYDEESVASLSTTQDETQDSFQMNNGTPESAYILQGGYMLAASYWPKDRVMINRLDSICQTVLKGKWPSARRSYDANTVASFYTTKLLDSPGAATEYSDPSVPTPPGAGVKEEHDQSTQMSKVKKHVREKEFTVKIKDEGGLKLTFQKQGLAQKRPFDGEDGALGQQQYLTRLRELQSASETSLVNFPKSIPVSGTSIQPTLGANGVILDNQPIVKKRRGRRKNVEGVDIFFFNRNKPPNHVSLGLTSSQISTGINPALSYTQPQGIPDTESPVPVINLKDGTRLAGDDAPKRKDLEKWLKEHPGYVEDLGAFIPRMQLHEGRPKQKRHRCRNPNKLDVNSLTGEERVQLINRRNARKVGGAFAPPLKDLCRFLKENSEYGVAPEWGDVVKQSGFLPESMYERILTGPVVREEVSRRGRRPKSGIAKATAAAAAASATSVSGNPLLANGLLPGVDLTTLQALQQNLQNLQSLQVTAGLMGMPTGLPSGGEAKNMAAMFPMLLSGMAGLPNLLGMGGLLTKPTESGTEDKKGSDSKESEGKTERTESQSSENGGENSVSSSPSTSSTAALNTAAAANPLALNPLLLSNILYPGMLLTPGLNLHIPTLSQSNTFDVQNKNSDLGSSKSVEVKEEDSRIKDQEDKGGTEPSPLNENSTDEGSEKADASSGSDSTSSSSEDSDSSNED

biological target: regular BRD9 isoform (Bromodomain Containing 9), FLAG-V5-tagged (human (cDNA of the MEC1 CLL cell line and an SF3B1-mutated CLL case)) (UniProt Q9H8M2); assay: affinity purification with mass spectrometry; V5-tag-based co-immunoprecipitation from nuclear extracts of HEK293T cell lines stably overexpressing the regular or alternative BRD9 isoform (control: FLAG-V5-tagged YFP), analysis by mass spectrometry

binding, binds:
SMARCC1 (from UniProt Q92922 1-1105), SMARCA4 (from UniProt P51532 1-1647), SPEN (from UniProt Q96T58 1-3664), BICRA (from UniProt Q9NZM4 1-1560), CHD9 (from UniProt Q3L8U1 1-2897), BRCA2 (from UniProt P51587 1-3418), ASPM (from UniProt Q8IZT6 1-3477)

No constants are given. Whether binding was seen depends on the method and setting. In cells and extracts the contact can be indirect. These calls come from enrichment with a bait or labelling near it, and not all partners need be listed.
